{"source": "the supplement of paper PMC12067093", "about": "“Discovery and optimisation of a covalent ligand for TRIM25 and its application to targeted protein ubiquitination” (Chemical Science, 2025)", "note": "The list shows a part of the results.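 Note: competitive chemoproteomic profiling in live THP-1 cells with an iodoacetamide desthiobiotin (IA-DTB) probe, comparing probe-labelled peptide intensities in compound-treated cells against DMSO-treated controls.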", "data": [{"compound": "CC1Cc2ccccc2N1C(=O)C1CCCN(C1)C(=O)CCl (mixture of isomers) [TRIM25 ligand 11 (diastereomer mixture)]", "assay": "probe-labelled cysteine peptide fold change vs DMSO (competition) (log2 fold change); higher = less target engagement (more negative = stronger competition)", "conditions": "10 µM; THP-1; incubation time: 4 h", "values": [{"target": "KIF2A_O00139_159_KSNCVK (UniProt O00139)", "probe-labelled cysteine peptide fold change": -0.178}, {"target": "LARP4B_Q92615_590_EPSVPASCAVSATYER (UniProt Q92615)", "probe-labelled cysteine peptide fold change": -0.00725}, {"target": "LARP4_Q71RC2_599_ASTASPCNNNINAATAVALQEPR (UniProt Q71RC2)", "probe-labelled cysteine peptide fold change": -0.13}, {"target": "KRR1_Q13601_142_ILQDDVACDIIK (UniProt Q13601)", "probe-labelled cysteine peptide fold change": 0.0733}, {"target": "LDHD_Q86WU2_384_HNAWYAALATRPGCK (UniProt Q86WU2)", "probe-labelled cysteine peptide fold change": -0.113}, {"target": "KIFC1_Q9BW19_95_CSTAIATGLK (UniProt Q9BW19)", "probe-labelled cysteine peptide fold change": -0.169}, {"target": "KIF2A_O00139_309_GMATCFAYGQTGSGK (UniProt O00139)", "probe-labelled cysteine peptide fold change": 0.00291}, {"target": "KLHL36_Q8N4N3_206_ECEHDLLQAALQWLTQQPER (UniProt Q8N4N3)", "probe-labelled cysteine peptide fold change": 0.377}, {"target": "KLC4_Q9NSK0_489_LEAAETLEECALR (UniProt Q9NSK0)", "probe-labelled cysteine peptide fold change": 0.12}, {"target": "KTI12_Q96EK9_107_TPLCLVYCVRPGGPIAGPQVAGANENPGR (UniProt Q96EK9)", "probe-labelled cysteine peptide fold change": -0.238}, {"target": "LAS1L_Q9Y4W2_316_GVTCENR (UniProt Q9Y4W2)", "probe-labelled cysteine peptide fold change": -0.507}, {"target": "LDHD_Q86WU2_429_EDLNASGLTGSIVGHVGDGNFHCILLVNPDDAEELGR (UniProt Q86WU2)", "probe-labelled cysteine peptide fold change": -0.0888}, {"target": "KPNB1_Q14974_345_QDENDDDDDWNPCK (UniProt Q14974)", "probe-labelled cysteine peptide fold change": 0.078}, {"target": "LAMC1_P11047_804_RCELCDDGYFGDPLGR (UniProt P11047)", "probe-labelled cysteine peptide fold change": -0.0583}, {"target": "L3HYPDH_Q96EM0_139_VNIHCPCGLVTAFVACEDGR (UniProt Q96EM0)", "probe-labelled cysteine peptide fold change": -0.347}, {"target": "LAMTOR2_Q9Y2Q5_92_VANLLLCMYAK (UniProt Q9Y2Q5)", "probe-labelled cysteine peptide fold change": -0.0512}, {"target": "KNL1_Q8NG31_1579_QVIQTHVNAGEAPDPVITSNVPCFHSIKPNLNNLNGK (UniProt Q8NG31)", "probe-labelled cysteine peptide fold change": -0.0213}, {"target": "LAGE3_Q14657_113_WKAEDCR (UniProt Q14657)", "probe-labelled cysteine peptide fold change": -0.183}, {"target": "LCP1_P13796_101_EGICAIGGTSEQSSVGTQHSYSEEEK (UniProt P13796)", "probe-labelled cysteine peptide fold change": 0.148}, {"target": "KLHDC3_Q9BQ90_355_LAVIQYNLDQSCLPHDIR (UniProt Q9BQ90)", "probe-labelled cysteine peptide fold change": 0.147}, {"target": "LAT2_Q9GZY6_160_TTETGAQQEGIGGLCR (UniProt Q9GZY6)", "probe-labelled cysteine peptide fold change": 0.0117}, {"target": "KPTN_Q9Y664_221_RLSALGCQSGYVR (UniProt Q9Y664)", "probe-labelled cysteine peptide fold change": -0.00935}, {"target": "LARS_Q9P2J5_554_NLETFCEETR (UniProt Q9P2J5)", "probe-labelled cysteine peptide fold change": -0.00821}, {"target": "KIF4A_O95239_977_EVCEQNQQLLR (UniProt O95239)", "probe-labelled cysteine peptide fold change": 0.179}, {"target": "L3MBTL2_Q969R5_531_LFNMDCPNHGFK (UniProt Q969R5)", "probe-labelled cysteine peptide fold change": -0.0671}, {"target": "LARS_Q9P2J5_936_PSHCTIYVAK (UniProt Q9P2J5)", "probe-labelled cysteine peptide fold change": 0.103}, {"target": "LCP1_P13796_283_WANYHLENAGCNK (UniProt P13796)", "probe-labelled cysteine peptide fold change": 0.0121}, {"target": "KMT2B_Q9UMN6_1447_QLHPGPCGLQAVSQR (UniProt Q9UMN6)", "probe-labelled cysteine peptide fold change": 0.063}, {"target": "KIF20A_O95235_487_SCMIVNVNPCASTYDETLHVAK (UniProt O95235)", "probe-labelled cysteine peptide fold change": 0.0465}, {"target": "LCORL_Q8N3X6_193_NGSIGPSIVCK (UniProt Q8N3X6)", "probe-labelled cysteine peptide fold change": 0.0711}, {"target": "LAS1L_Q9Y4W2_60_AEWDQVTVYLFCDDHK (UniProt Q9Y4W2)", "probe-labelled cysteine peptide fold change": 0.323}, {"target": "KIF21B_O75037_203_LIHSQEELIQCLK (UniProt O75037)", "probe-labelled cysteine peptide fold change": 0.154}, {"target": "L3MBTL3_Q96JM7_389_KNPSFICVATVTDMVDNR (UniProt Q96JM7)", "probe-labelled cysteine peptide fold change": 0.101}, {"target": "KRAS_P01116_118_CDLPSR (UniProt P01116)", "probe-labelled cysteine peptide fold change": -0.0999}, {"target": "KRI1_Q8N9T8_667_LLGPTVMLGGCEFSR (UniProt Q8N9T8)", "probe-labelled cysteine peptide fold change": -0.0896}, {"target": "LARS_Q9P2J5_70_CEFAVGYQR (UniProt Q9P2J5)", "probe-labelled cysteine peptide fold change": 0.0939}, {"target": "LARP1_Q6PKG0_502_RREEPEKWPLPPIVDYSQTDFSQLLNCPEFVPR (UniProt Q6PKG0)", "probe-labelled cysteine peptide fold change": -0.0362}]}, {"compound": "CC1Cc2ccccc2N1C(=O)C1CCCN(C1)C(=O)CCl (mixture of isomers) [TRIM25 ligand 11 (diastereomer mixture)]", "assay": "probe-labelled cysteine peptide fold change vs DMSO (competition) (log2 fold change); higher = less target engagement (more negative = stronger competition)", "conditions": "50 µM; THP-1; incubation time: 4 h", "values": [{"target": "KIF2A_O00139_159_KSNCVK (UniProt O00139)", "probe-labelled cysteine peptide fold change": -0.462}, {"target": "LARP4B_Q92615_590_EPSVPASCAVSATYER (UniProt Q92615)", "probe-labelled cysteine peptide fold change": -0.225}, {"target": "LARP4_Q71RC2_599_ASTASPCNNNINAATAVALQEPR (UniProt Q71RC2)", "probe-labelled cysteine peptide fold change": -0.457}, {"target": "KRR1_Q13601_142_ILQDDVACDIIK (UniProt Q13601)", "probe-labelled cysteine peptide fold change": 0.0664}, {"target": "LDHD_Q86WU2_384_HNAWYAALATRPGCK (UniProt Q86WU2)", "probe-labelled cysteine peptide fold change": -0.113}, {"target": "KIFC1_Q9BW19_95_CSTAIATGLK (UniProt Q9BW19)", "probe-labelled cysteine peptide fold change": -0.282}, {"target": "KIF2A_O00139_309_GMATCFAYGQTGSGK (UniProt O00139)", "probe-labelled cysteine peptide fold change": -0.0292}, {"target": "KLHL36_Q8N4N3_206_ECEHDLLQAALQWLTQQPER (UniProt Q8N4N3)", "probe-labelled cysteine peptide fold change": 0.113}, {"target": "KLC4_Q9NSK0_489_LEAAETLEECALR (UniProt Q9NSK0)", "probe-labelled cysteine peptide fold change": 0.000758}, {"target": "KTI12_Q96EK9_107_TPLCLVYCVRPGGPIAGPQVAGANENPGR (UniProt Q96EK9)", "probe-labelled cysteine peptide fold change": -0.014}, {"target": "LAS1L_Q9Y4W2_316_GVTCENR (UniProt Q9Y4W2)", "probe-labelled cysteine peptide fold change": -0.162}, {"target": "LDHD_Q86WU2_429_EDLNASGLTGSIVGHVGDGNFHCILLVNPDDAEELGR (UniProt Q86WU2)", "probe-labelled cysteine peptide fold change": -0.0226}, {"target": "KPNB1_Q14974_345_QDENDDDDDWNPCK (UniProt Q14974)", "probe-labelled cysteine peptide fold change": 0.0516}, {"target": "LAMC1_P11047_804_RCELCDDGYFGDPLGR (UniProt P11047)", "probe-labelled cysteine peptide fold change": 0.389}, {"target": "L3HYPDH_Q96EM0_139_VNIHCPCGLVTAFVACEDGR (UniProt Q96EM0)", "probe-labelled cysteine peptide fold change": 0.0247}, {"target": "LAMTOR2_Q9Y2Q5_92_VANLLLCMYAK (UniProt Q9Y2Q5)", "probe-labelled cysteine peptide fold change": 0.117}, {"target": "KNL1_Q8NG31_1579_QVIQTHVNAGEAPDPVITSNVPCFHSIKPNLNNLNGK (UniProt Q8NG31)", "probe-labelled cysteine peptide fold change": 0.0166}, {"target": "LAGE3_Q14657_113_WKAEDCR (UniProt Q14657)", "probe-labelled cysteine peptide fold change": 0.128}, {"target": "LCP1_P13796_101_EGICAIGGTSEQSSVGTQHSYSEEEK (UniProt P13796)", "probe-labelled cysteine peptide fold change": -0.239}, {"target": "KLHDC3_Q9BQ90_355_LAVIQYNLDQSCLPHDIR (UniProt Q9BQ90)", "probe-labelled cysteine peptide fold change": 0.312}, {"target": "LAT2_Q9GZY6_160_TTETGAQQEGIGGLCR (UniProt Q9GZY6)", "probe-labelled cysteine peptide fold change": -0.118}, {"target": "KPTN_Q9Y664_221_RLSALGCQSGYVR (UniProt Q9Y664)", "probe-labelled cysteine peptide fold change": 0.154}, {"target": "LARS_Q9P2J5_554_NLETFCEETR (UniProt Q9P2J5)", "probe-labelled cysteine peptide fold change": -0.0556}, {"target": "KIF4A_O95239_977_EVCEQNQQLLR (UniProt O95239)", "probe-labelled cysteine peptide fold change": -0.208}, {"target": "L3MBTL2_Q969R5_531_LFNMDCPNHGFK (UniProt Q969R5)", "probe-labelled cysteine peptide fold change": -0.122}, {"target": "LARS_Q9P2J5_936_PSHCTIYVAK (UniProt Q9P2J5)", "probe-labelled cysteine peptide fold change": 0.111}, {"target": "LCP1_P13796_283_WANYHLENAGCNK (UniProt P13796)", "probe-labelled cysteine peptide fold change": 0.146}, {"target": "KMT2B_Q9UMN6_1447_QLHPGPCGLQAVSQR (UniProt Q9UMN6)", "probe-labelled cysteine peptide fold change": 0.164}, {"target": "KIF20A_O95235_487_SCMIVNVNPCASTYDETLHVAK (UniProt O95235)", "probe-labelled cysteine peptide fold change": 0.123}, {"target": "LCORL_Q8N3X6_193_NGSIGPSIVCK (UniProt Q8N3X6)", "probe-labelled cysteine peptide fold change": -0.0509}, {"target": "LAS1L_Q9Y4W2_60_AEWDQVTVYLFCDDHK (UniProt Q9Y4W2)", "probe-labelled cysteine peptide fold change": 0.479}, {"target": "KIF21B_O75037_203_LIHSQEELIQCLK (UniProt O75037)", "probe-labelled cysteine peptide fold change": 0.11}, {"target": "L3MBTL3_Q96JM7_389_KNPSFICVATVTDMVDNR (UniProt Q96JM7)", "probe-labelled cysteine peptide fold change": -0.0593}, {"target": "KRAS_P01116_118_CDLPSR (UniProt P01116)", "probe-labelled cysteine peptide fold change": -0.118}, {"target": "KRI1_Q8N9T8_667_LLGPTVMLGGCEFSR (UniProt Q8N9T8)", "probe-labelled cysteine peptide fold change": -0.0608}, {"target": "LARS_Q9P2J5_70_CEFAVGYQR (UniProt Q9P2J5)", "probe-labelled cysteine peptide fold change": -0.0463}, {"target": "LARP1_Q6PKG0_502_RREEPEKWPLPPIVDYSQTDFSQLLNCPEFVPR (UniProt Q6PKG0)", "probe-labelled cysteine peptide fold change": -0.156}]}]}
